No constants are given. Whether binding was seen depends on the method and setting. Binding can be weak; no strength is given.

The chains behind the UniProt entries cited, without tags or fusion partners.
UniProt Q8H0T5: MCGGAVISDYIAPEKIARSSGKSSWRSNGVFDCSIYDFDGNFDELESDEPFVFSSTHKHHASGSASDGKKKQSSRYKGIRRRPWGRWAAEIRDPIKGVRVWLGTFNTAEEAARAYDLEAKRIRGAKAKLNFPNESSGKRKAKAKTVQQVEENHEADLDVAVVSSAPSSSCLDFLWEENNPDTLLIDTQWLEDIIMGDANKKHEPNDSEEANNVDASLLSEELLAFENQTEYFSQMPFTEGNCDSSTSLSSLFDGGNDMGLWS
UniProt O22259: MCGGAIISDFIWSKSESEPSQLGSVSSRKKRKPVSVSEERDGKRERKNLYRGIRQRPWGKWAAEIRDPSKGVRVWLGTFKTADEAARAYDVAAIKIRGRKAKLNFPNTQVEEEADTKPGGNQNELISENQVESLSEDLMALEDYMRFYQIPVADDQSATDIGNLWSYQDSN
UniProt Q9LUM4: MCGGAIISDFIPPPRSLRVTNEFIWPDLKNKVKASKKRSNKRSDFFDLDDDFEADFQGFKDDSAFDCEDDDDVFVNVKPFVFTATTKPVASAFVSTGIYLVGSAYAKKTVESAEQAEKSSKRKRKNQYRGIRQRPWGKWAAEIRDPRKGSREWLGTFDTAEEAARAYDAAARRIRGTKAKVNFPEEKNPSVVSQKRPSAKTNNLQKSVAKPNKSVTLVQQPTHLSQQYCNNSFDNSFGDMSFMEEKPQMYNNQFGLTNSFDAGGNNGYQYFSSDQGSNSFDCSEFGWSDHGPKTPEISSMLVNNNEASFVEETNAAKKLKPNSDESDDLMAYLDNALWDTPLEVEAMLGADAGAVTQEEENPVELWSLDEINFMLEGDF
UniProt Q9SSA8: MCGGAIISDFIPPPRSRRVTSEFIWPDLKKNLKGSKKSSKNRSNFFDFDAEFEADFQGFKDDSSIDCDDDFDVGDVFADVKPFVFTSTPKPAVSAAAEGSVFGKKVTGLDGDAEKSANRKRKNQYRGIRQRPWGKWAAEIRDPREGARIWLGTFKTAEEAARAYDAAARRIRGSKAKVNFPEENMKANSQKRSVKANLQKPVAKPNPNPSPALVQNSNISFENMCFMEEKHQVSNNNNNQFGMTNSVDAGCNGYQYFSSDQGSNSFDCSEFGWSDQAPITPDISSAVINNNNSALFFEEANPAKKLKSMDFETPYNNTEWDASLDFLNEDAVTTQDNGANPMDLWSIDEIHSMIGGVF

The assay concerns the target HRA1 C-terminal fragment (HRA1_(194–431)), yeast two-hybrid fusion of Figure 4B (Arabidopsis thaliana) (UniProt F4J2I9). Put plainly: two-hybrid; ProQuest Two-Hybrid System, S. cerevisiae MaV203; baits in pDEST32, preys in pDEST22; growth on SC-LWH with 10 mM 3AT and β-galactosidase (LacZ) staining; 28°C.
As to “HRE1, yeast two-hybrid fusion of Figure 4B (from UniProt Q8H0T5 1-262)”, the binding entry is given as “no binding”.

As to “HRE2, yeast two-hybrid fusion of Figure 4B (from UniProt O22259 1-171)”, the binding result is given as “no binding”.

Regarding “RAP2.2, yeast two-hybrid fusion of Figure 4B (from UniProt Q9LUM4 1-379)”, the binding entry is “no binding”.

For “RAP2.12, yeast two-hybrid fusion of Figure 4B (from UniProt Q9SSA8 1-358)”, the binding entry was “binds”.

Source of the values: PMC4165759.
